Measurements as given in paper PMC4373798.

By UniProt entry, the sequences of proteins in these tests, tags left out.
UniProt P26231: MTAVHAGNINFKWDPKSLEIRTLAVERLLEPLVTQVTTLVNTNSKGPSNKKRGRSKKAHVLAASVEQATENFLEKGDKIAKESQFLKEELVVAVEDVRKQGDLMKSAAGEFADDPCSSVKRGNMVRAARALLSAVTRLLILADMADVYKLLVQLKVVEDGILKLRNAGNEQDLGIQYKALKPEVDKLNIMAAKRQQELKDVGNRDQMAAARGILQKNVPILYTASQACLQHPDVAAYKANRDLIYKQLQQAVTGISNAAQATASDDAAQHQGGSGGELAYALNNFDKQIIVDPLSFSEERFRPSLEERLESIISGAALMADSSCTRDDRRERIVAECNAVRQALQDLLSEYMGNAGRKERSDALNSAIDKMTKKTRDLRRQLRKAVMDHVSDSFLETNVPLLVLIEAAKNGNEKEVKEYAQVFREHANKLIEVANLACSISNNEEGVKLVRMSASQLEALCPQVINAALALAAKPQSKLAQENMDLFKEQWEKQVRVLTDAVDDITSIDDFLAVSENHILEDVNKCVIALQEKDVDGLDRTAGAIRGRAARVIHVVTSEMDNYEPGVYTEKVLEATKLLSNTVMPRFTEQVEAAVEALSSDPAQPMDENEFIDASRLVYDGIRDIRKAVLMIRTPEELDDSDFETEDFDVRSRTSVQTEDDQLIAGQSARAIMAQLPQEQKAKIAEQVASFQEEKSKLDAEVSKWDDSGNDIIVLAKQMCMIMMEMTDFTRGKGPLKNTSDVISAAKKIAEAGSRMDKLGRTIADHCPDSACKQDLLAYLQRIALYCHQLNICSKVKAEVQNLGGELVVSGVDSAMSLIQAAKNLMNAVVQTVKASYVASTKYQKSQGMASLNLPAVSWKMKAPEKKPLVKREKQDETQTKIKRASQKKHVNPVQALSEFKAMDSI
UniProt B6V8E6: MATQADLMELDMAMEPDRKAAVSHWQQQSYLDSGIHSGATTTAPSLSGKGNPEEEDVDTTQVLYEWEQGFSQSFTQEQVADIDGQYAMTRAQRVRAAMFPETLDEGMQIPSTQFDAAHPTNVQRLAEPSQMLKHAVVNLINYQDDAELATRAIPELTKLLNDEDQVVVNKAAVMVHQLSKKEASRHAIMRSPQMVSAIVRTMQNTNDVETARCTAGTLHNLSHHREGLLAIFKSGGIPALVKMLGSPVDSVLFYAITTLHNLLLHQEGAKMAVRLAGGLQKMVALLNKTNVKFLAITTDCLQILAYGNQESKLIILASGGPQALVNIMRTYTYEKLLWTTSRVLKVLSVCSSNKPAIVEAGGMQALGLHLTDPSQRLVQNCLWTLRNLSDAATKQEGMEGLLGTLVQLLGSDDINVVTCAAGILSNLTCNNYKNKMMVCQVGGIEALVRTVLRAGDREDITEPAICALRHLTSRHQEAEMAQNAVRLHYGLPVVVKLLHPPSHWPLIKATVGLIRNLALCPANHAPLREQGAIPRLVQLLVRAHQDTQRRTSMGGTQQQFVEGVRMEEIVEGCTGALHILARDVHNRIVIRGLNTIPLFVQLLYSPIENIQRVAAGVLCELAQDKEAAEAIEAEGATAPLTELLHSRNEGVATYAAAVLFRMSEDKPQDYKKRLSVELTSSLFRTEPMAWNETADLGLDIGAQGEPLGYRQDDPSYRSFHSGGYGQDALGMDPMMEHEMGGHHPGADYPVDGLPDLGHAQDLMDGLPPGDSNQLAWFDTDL

Assays:
[1] = molecular target: GFP-tagged BirA*-α-catenin (GFP-BirA*-α-catenin fusion with epithelia-specific α-catenin) (UniProt P26231); test: proximity labelling; biotinylation read on immuno-precipitates (E-cadherin or myosin IIA antibody, 0.1% SDS wash) by streptavidin-HRP blot; control and stretched cells
[2] = molecular target: GFP-tagged BirA*-α-catenin (GFP-BirA*-α-catenin fusion with epithelia-specific α-catenin) (UniProt P26231); test: proximity labelling; BirA*-α-catenin MDCK cells on a P150 dish, 50 μM biotin; lysis in 0.2% SDS RIPA; streptavidin beads in 0.1% SDS, washed with 2% SDS; Western blot of the bead fraction
[3] = molecular target: GFP-tagged BirA*-α-catenin (GFP-BirA*-α-catenin fusion with epithelia-specific α-catenin) (UniProt P26231); test: proximity labelling; BirA*-α-catenin MDCK cells in PDMS stretch chambers without mechanical perturbation; standard protocol, streptavidin beads washed with 2% SDS; Western blot

binding [1]: binds | binding [2]: binds | binding [3]: binds weakly
Substance: β-catenin (from UniProt B6V8E6 1-781)

These are yes or no findings as the source states them, for the method shown. In cells and extracts the contact can be indirect. Here binding means that the protein was enriched with, or labelled near, the bait; the list need not be complete.
